Results as given in patent publication US20200023081A1 (The Board of Trustees of the Leland Stanford Junior …, priority 2018, published 2020).
Some peptides are written in HELM: one residue between dots, names in brackets for other building blocks, links after the first $.

Assay: general procedure: peptide synthesis; EDC/NHS, DIPEA
Details: conjugation step

Substance	conjugation yield
CH-3c(RGDyk) [C135H161N33O29S2]	22.3%
CH-PEG2-c(RGDfk) [C93H105N17O20S2]	80%
CH-c(RADyk) [C82H85N15O15S2]	77%
CH-c(RGDfk) [C81H83N15O14S2]	73%
PEPTIDE1{R.G.D.[dY].K}|CHEM1{[CH1055]}$PEPTIDE1,PEPTIDE1,1:R1-5:R2|PEPTIDE1,CHEM1,5:R3-1:R2$$$V2.0	81%
